These are yes or no findings as the source states them, for the method shown. Binding seen in cells or lysates may run through a third protein. Some results given as binding are weak or reduced against the parent protein; the word gives no strength.
Legend:
[1] = target: GST-talin R8 (1,453–1,580) K1530E/K1544E (2E) (UniProt P26039); experiment: pull-down; HEK293 cells co-transfected with paxillin-DDK and GST-R8 (wild type or mutants); GST pull-down
[2] = target: GST-talin R8 (amino acids 1,453–1,580), wild type (UniProt P26039); experiment: as above

Protein sequences, listed by entry. Tags and fused reporters are not part of them. Lines headed by an entry give the natural chain unless they say otherwise; changes in a name come on top. Chains listed by the source or under a name are the forms on record and can include a tag or linker. Residues count along the entry.
GST-talin R8 (amino acids 1,453–1,580), wild type (P26039, residues 1453-1580): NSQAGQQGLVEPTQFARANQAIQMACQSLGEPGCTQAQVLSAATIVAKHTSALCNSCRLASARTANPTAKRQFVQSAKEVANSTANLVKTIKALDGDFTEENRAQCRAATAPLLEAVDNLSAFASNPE
GST-talin R8 (1,453–1,580) K1530E/K1544E (2E) (P26039, form named): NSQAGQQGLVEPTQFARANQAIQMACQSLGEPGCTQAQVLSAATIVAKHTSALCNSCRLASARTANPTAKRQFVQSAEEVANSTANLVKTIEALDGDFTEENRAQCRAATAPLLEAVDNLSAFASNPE
UniProt P49023: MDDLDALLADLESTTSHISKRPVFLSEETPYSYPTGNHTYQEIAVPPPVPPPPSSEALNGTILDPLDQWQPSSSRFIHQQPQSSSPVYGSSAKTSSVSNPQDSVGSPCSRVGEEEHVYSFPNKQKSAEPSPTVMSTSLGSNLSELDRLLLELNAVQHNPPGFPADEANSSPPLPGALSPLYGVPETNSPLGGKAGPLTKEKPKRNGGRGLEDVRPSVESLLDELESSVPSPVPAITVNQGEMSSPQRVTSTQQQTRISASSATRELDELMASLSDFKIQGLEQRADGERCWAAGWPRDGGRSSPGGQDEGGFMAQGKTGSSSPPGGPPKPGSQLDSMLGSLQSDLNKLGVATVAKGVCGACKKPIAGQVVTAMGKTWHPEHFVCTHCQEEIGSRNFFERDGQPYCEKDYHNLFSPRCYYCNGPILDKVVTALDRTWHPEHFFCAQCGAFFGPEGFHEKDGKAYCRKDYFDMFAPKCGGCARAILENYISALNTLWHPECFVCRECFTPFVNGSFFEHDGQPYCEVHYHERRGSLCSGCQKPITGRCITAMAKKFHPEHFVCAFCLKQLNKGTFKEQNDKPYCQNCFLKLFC

binding [1]: binds
binding [2]: binds
Substance: paxillin-DDK (from UniProt P49023 1-591)

Reference: article PMC4938799, “LD Motif Recognition by Talin: Structure of the Talin-DLC1 Complex” (Structure(London, England:1993), 2016)
